Assay results taken from article PMC5006505.
No constants are given. Whether binding was seen depends on the method and setting. In cells and extracts the contact can be indirect. Some binding calls cover weakened binding; strength is not graded here.

The chains behind the UniProt entries cited, without tags or fusion partners. Where a name states a change or a piece, a line headed by the entry shows the natural chain unless it says otherwise.
UniProt Q04637: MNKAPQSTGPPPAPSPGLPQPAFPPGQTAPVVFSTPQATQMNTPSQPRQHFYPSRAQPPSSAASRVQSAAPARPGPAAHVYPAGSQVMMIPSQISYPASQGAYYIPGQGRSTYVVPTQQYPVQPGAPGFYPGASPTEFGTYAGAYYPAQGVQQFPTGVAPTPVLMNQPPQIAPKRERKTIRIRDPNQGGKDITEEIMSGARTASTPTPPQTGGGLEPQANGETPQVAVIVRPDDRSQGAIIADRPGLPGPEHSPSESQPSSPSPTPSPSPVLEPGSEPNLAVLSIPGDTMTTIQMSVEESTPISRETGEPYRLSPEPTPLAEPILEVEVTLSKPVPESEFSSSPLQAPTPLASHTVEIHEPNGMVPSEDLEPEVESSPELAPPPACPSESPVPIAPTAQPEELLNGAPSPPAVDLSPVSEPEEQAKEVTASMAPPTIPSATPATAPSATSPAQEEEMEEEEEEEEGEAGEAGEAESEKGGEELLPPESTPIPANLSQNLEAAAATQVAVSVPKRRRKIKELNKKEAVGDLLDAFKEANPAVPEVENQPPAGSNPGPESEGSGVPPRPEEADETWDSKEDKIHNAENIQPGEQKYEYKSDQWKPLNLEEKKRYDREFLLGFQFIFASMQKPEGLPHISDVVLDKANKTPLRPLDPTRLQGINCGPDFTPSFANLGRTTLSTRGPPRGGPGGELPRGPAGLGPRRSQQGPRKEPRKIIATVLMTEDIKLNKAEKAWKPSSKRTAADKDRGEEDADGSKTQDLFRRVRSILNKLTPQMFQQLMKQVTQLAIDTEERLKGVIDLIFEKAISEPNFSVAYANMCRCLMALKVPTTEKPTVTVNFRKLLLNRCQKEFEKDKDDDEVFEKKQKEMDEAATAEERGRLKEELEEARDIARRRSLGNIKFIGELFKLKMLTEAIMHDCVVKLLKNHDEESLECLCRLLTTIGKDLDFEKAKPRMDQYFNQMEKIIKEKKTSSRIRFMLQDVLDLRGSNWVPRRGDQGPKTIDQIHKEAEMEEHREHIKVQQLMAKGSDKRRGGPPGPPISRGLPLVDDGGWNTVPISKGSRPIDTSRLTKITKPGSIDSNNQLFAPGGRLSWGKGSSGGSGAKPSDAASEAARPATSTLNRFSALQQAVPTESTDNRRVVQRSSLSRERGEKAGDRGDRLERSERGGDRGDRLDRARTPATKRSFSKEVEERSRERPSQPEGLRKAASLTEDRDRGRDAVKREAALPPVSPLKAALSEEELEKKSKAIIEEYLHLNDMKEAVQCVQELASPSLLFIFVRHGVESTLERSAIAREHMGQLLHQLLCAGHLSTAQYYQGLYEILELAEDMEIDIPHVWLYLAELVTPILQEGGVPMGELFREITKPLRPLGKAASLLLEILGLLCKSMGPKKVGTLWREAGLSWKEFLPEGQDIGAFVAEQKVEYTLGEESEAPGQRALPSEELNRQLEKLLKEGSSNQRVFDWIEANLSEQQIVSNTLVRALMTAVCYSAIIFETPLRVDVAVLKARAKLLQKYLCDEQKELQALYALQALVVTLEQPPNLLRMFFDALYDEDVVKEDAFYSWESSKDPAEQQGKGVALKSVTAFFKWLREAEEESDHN
UniProt Q8N5X7: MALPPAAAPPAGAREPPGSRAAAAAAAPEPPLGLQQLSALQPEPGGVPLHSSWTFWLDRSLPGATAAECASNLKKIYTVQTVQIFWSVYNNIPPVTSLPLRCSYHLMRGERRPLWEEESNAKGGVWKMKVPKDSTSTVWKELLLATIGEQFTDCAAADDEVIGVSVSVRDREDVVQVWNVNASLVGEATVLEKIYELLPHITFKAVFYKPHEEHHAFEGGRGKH

Legend:
[1] = biological target: eukaryotic translation initiation factor 4G (eIF4G1, isoform 1) (human (endogenous in HEK293)) (UniProt Q04637); experiment: co-IP; reverse immunoprecipitation with endogenous eIF4G as bait, GFP-eIF4E fusions as prey; data not shown
GFP-eIF4E3_A (human) = GFP-eIF4E3_A (human) (UniProt Q8N5X7); experiment: co-IP; GFP-Trap_A beads on lysates of HEK293 cells producing GFP-eIF4E1_1, GFP-eIF4E3_A, GFP-eIF4E3_B or GFP alone; western blot with anti-eIF4G, anti-PABP, anti-GFP and anti-β-actin antibodies

binding [1]	binding (GFP-eIF4E3_A (human))	Substance
binds	–	GFP-eIF4E3_A (from UniProt Q8N5X7-1 1-224)
–	binds	eukaryotic translation initiation factor 4G (eIF4G1, isoform 1) (from UniProt Q04637 1-1599)
